Assay results reported in publication doi:10.64898/2025.12.11.693714.
No constants are given. Whether binding was seen depends on the method and setting. For some assays here: In cells and extracts the contact can be indirect. Some results given as binding are weak or reduced against the parent protein; the word gives no strength. For some assays here: Sequences can lack the tags named with a protein.

The chains behind the UniProt entries cited, without tags or fusion partners. Where a name states a change or a piece, a line headed by the entry shows the natural chain unless it says otherwise.
UniProt O14744: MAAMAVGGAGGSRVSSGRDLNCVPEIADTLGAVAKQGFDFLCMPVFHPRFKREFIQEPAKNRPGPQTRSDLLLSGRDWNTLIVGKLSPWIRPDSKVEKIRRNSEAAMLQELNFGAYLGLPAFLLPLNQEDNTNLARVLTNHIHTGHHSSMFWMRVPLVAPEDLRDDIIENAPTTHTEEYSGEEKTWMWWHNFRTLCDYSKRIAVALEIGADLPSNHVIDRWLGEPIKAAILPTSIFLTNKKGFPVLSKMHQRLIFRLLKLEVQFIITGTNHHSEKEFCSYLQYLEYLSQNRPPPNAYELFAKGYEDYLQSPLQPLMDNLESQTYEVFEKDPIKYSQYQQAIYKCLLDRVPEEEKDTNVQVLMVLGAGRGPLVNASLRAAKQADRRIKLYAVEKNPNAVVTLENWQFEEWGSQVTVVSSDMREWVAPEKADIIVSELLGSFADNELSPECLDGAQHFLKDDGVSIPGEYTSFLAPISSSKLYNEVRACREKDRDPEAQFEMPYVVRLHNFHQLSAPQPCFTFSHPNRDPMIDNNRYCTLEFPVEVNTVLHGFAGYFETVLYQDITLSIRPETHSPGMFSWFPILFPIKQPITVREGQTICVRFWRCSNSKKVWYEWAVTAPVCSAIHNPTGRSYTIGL
UniProt Q96GD4: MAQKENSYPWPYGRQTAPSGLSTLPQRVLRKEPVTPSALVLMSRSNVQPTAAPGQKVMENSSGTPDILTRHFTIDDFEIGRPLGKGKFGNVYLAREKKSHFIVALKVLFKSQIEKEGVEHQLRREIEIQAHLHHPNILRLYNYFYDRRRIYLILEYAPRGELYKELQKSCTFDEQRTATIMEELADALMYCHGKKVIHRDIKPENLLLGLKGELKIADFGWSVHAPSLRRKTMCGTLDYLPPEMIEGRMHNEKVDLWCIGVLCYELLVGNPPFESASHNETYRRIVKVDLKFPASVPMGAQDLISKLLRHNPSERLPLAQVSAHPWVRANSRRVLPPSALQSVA
UniProt P30281: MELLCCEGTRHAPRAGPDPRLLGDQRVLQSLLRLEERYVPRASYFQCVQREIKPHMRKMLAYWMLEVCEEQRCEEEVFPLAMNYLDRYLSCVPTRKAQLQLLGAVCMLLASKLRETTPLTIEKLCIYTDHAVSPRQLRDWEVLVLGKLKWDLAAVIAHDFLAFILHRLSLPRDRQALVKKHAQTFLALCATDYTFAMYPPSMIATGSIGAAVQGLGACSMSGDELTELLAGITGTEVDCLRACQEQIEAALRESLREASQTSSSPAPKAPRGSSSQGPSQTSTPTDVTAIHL
UniProt P53350: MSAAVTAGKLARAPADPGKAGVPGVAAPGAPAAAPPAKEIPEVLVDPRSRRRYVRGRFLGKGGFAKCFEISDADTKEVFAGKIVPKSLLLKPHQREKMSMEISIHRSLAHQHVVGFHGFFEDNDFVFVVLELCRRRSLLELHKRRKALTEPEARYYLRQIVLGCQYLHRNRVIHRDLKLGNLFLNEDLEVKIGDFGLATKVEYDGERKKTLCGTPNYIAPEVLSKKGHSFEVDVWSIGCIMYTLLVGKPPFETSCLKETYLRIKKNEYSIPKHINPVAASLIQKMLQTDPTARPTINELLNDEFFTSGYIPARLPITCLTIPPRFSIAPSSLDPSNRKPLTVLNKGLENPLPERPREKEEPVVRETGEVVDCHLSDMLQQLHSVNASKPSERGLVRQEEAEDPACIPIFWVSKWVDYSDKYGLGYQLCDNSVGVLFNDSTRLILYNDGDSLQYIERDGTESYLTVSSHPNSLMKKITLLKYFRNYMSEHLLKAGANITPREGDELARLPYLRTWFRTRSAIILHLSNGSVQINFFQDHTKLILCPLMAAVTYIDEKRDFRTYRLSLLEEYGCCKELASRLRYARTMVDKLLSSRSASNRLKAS

Tests used:
[1] = target: PRMT5 (yeast two-hybrid fusion) (human) (UniProt O14744); assay: two-hybrid
[2] = target: CDK4 (NanoLuc-based LUMIER co-IP construct) (human) (UniProt P11802); assay: co-IP
[3] = target: PRMT5^null (G367A/R368A) with a split Venus-EYFP fragment (human) (UniProt O14744); assay: split reporter
[4] = target: T1, CDK4 (NanoLuc-based LUMIER co-IP construct) (human), P11802; assay: co-IP; details: remark: other sources report otherwise
T1 chain: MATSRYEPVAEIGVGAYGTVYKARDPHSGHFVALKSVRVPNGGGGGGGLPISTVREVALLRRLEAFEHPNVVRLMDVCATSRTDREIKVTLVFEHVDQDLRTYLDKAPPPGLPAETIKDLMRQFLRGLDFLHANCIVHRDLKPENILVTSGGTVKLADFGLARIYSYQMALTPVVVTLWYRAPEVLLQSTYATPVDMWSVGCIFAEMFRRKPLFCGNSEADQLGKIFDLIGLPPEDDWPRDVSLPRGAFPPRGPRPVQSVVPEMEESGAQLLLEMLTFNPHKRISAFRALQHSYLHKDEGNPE

With “AURKB (yeast two-hybrid fusion) (from UniProt Q96GD4 1-344) (enzyme)” the binding [1] was “binds”.

For “CCND3 (NanoLuc-based LUMIER co-IP construct) (from UniProt P30281 1-292)”, the binding [2] was “binds”.

In the case of “PLK1 (yeast two-hybrid fusion) (from UniProt P53350 1-603) (enzyme)”, the binding [1] is reported as “binds”.

For “PRMT5^null (G367A/R368A) with a split Venus-EYFP fragment (from UniProt O14744 1-637) (enzyme)”, the binding [3] was “binds”.

B1: CDKN2B, P42772 1-138 (protein)
chain: MREENKGMPSGGGSDEGLASAAARGLVEKVRQLLEAGADPNGVNRFGRRAIQVMMMGSARVAELLLLHGAEPNCADPATLTRPVHDAAREGFLDTLVVLHRAGARLDVRDAWGRLPVDLAEERGHRDVAGYLRTATGD
In the case of B1, the binding [4] is reported as “binds”.
